Results are given in words; binding and its absence hold for the method and conditions named. In cells and extracts the contact can be indirect. A result given as binding can be weak or reduced; the word gives no strength.
Target: Myc-tagged NBirA*-TNRC6C (UniProt Q9HCJ0)
Assay: co-IP; lysates of HeLa cells transfected with the Myc-NBirA* and FLAG-CBirA* fusions; anti-Myc or anti-FLAG antibody on magnetic beads, overnight at 4 °C, washes with 50 mM Tris pH 7.4, 300 mM NaCl, 1 mM MgCl2, 0.5% NP-40; western blot; untransfected cells as control

Sequences of proteins named here, by UniProt entry; tags and fusion partners are left off. A change or cut given only in a name is not applied to a line headed by its entry.
UniProt Q9HCJ0: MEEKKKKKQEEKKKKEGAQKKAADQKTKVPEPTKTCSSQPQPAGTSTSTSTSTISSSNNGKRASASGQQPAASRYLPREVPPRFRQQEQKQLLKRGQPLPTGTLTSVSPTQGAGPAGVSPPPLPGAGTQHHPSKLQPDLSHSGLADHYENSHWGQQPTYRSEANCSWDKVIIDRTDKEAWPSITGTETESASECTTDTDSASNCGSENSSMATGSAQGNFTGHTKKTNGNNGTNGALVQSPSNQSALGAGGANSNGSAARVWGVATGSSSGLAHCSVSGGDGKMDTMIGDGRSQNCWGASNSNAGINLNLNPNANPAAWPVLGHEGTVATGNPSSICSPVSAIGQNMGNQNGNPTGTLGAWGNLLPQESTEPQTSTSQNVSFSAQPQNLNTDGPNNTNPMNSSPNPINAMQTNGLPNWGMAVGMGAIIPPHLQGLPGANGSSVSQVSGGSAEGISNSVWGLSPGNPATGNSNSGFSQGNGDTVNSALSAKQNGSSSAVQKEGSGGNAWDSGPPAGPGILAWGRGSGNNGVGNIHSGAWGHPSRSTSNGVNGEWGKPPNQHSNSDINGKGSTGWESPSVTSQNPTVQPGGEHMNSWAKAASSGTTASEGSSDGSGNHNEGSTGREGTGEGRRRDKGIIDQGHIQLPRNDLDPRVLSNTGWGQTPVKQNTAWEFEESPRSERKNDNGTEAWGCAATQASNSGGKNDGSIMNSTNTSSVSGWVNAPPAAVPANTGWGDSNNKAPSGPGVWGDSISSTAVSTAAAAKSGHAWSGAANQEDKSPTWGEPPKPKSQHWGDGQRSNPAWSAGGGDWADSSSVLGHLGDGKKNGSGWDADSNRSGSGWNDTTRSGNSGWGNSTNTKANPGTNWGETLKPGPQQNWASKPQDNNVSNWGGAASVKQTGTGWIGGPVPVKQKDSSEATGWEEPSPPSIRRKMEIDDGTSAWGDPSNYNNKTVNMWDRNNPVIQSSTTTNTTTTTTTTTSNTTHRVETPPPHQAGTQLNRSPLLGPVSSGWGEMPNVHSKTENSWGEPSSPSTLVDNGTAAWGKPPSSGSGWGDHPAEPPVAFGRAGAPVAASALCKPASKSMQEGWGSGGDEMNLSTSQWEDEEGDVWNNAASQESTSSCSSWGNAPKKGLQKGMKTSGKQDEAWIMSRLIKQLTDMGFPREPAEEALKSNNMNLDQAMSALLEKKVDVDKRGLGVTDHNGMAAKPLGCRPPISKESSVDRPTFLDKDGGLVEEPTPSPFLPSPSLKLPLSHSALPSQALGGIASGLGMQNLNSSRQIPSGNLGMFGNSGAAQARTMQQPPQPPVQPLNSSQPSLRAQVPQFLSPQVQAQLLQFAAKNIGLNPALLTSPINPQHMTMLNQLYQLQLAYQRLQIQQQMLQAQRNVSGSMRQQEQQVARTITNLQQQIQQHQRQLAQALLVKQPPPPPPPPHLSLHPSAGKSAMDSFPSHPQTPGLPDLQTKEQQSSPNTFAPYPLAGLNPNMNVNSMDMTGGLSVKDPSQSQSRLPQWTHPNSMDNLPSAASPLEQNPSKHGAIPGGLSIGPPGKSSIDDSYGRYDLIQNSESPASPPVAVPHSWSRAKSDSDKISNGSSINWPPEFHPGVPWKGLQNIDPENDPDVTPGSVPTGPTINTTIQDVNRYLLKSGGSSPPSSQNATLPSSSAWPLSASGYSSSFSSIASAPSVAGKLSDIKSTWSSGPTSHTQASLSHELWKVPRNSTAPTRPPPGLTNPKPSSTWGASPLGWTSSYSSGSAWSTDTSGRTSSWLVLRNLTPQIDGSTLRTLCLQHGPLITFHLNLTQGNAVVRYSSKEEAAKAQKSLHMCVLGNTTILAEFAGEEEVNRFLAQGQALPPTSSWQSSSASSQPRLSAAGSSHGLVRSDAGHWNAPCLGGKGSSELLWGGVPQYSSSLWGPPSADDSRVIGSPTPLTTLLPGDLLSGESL
UniProt Q9UKV8: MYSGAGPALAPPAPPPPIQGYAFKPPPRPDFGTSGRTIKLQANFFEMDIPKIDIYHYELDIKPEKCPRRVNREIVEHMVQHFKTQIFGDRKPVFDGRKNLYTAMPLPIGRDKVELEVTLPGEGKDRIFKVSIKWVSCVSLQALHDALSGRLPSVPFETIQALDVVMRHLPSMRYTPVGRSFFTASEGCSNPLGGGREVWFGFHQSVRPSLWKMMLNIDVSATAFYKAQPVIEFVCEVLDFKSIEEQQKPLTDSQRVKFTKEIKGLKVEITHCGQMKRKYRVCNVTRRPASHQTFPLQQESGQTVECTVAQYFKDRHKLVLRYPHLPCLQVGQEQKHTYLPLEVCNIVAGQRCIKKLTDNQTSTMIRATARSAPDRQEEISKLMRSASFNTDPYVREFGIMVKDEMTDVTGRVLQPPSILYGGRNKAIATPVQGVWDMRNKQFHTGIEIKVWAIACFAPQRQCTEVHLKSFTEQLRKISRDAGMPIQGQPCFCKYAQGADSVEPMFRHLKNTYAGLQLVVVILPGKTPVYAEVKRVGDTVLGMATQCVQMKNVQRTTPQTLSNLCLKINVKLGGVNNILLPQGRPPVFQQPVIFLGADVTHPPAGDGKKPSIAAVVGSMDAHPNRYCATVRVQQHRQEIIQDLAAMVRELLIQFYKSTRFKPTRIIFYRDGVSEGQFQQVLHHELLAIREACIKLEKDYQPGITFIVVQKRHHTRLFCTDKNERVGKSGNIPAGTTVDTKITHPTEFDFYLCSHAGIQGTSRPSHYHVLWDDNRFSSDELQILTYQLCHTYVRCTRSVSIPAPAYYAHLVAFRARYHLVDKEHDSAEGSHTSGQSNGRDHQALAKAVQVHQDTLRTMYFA

binding: binds
Substance: CBirA*-Ago2 (from UniProt Q9UKV8 1-859)
